Measurements from PubChem BioAssay AID2685 (National Center for Advancing Translational Sciences (NCATS), 2010).
The list shows a part of the results. Shown are side measurements of this screen, not its main read-out; they come without a call. Compounds called inactive in the main read-out are mostly missing here. Potencies come from curve fits of mixed quality, noted in brackets.

Assay: qHTS Assay for Lipid Storage Modulators in Drosophila S3 Cells;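 for cell number change: cells counted by Cell Tracker Red CMTPX staining in the red channel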
Conditions: BODIPY lipid droplet fluorescence, 18-24 h; for cell number change: measured here: cell count max response, cells fed with added oleic acid
How it was run: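 Drosophila S3 cells loaded with oleic acid (400 uM, as added) and compounds at several concentrations; lipid droplets imaged by 488-nm laser-scanning cytometry, 500–530 nm intensity and object ratio to cell channel. Percent activity normalized to 20 uM Triacsin C.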

[1] = measured here: cell number channel AC50, cells fed with added oleic acid
[2] = measured here: lipid fluorescence (Fed channel) AC50, cells fed with added oleic acid

Compound | cell number change [%] | AC50 [1] | AC50 [2]
CCOC(=O)Cc1nnc(NC(=O)COc2ccc(C)cc2)s1 | 69.9 | 16.4 µM [rising, partial curve] | 8.2 µM [rising, partial curve]
CCOc1ccc(-n2ccnc(SCC(=O)Nc3cccc(OC)c3)c2=O)cc1 | 9.09 | 0.116 µM [rising, full curve, poor fit] | 4.61 µM [falling, single point]
C=CCNC(=O)COC(=O)C1CCN(S(=O)(=O)c2ccc3c(c2)OCCO3)CC1 | 13 | 2.59 µM [rising, partial curve, poor fit] | –
N#CCC(=O)N/N=C\c1cc(Br)ccc1OC/C=C/c1ccccc1 | -10.1 | – | 29.1 µM [rising, single point]
CCC1CCCCN1C(=O)c1ccc([N+](=O)[O-])o1 (centres undefined) | 11.8 | 0.326 µM [rising, partial curve] | 5.62 µM [falling, single point]
COc1cccc(/C=C/C(=O)OCC(=O)Nc2ccc(Cl)cn2)c1 | 30.1 | 29.1 µM [rising, single point] | –
CCOCCCN(C)C1CCN(C(=O)c2oc3ccccc3c2NC(=O)COc2ccc(F)cc2)CC1 | 39.2 | 1.64 µM [rising, full curve] | –
COc1ccc(C(=O)NN2CCOCC2)cc1 | 21.8 | – | 16.4 µM [rising, single point]
C=CCN(C(=O)OC(C)(C)C)S(=O)(=O)NCc1ccccc1 | -16.4 | – | 29.1 µM [rising, single point]
Cc1ccc(NC2CCCN(C(=O)c3ccc4[nH]ccc4c3)C2)cc1C (centres undefined) | 11.2 | – | –
COc1ccccc1N=Nc1ccc(O)c2ncccc12 | -53.9 | 18.4 µM [falling, single point] | 14.6 µM [falling, partial curve, poor fit]
Clc1ncnc2scc(-c3ccccc3)c12 | – | 2.59 µM [falling, partial curve] | 6.51 µM [falling, single point]
Cc1cc(C)c2nc(SCCc3ccccc3)nc(C)c2c1 | – | 1.3 µM [rising, partial curve] | 0.651 µM [rising, full curve]
O=C(CSc1nnc(-c2ccccc2F)o1)NC1CCCCC1 | 37.1 | 23.1 µM [rising, partial curve] | 2.06 µM [rising, partial curve, poor fit]
O=C(Nc1nccs1)c1ccc(Cl)s1 | -7.28 | – | 0.13 µM [falling, full curve, poor fit]
CCCCCCSc1nnc2[nH]c(=O)cc(N)n12 | 16.1 | – | 16.4 µM [rising, single point]
CCCCOC(=O)c1ccc(S(N)(=O)=O)o1 | -26 | – | 0.291 µM [falling, full curve, poor fit]
Cc1cc(C)cc(N=c2c([N+](=O)[O-])nn(-c3ccc(Cl)cc3)n2O)c1 | -78 | 18.4 µM [falling, single point] | 14.6 µM [falling, partial curve]
COc1ccc(-n2ncc(Cl)c(Cl)c2=O)cc1 | – | – | 6.51 µM [rising, single point]
COc1ccc(S(=O)(=O)Nc2ccc(-n3cnnn3)cc2)cc1[N+](=O)[O-] | 12 | – | 14.6 µM [rising, partial curve, poor fit]

Compound | cell number change [%] | AC50 [1] | AC50 [2]
Cc1ccc(SCC(=O)NCCSC(C)(C)C)cc1 | -14.9 | – | 0.0517 µM [falling, full curve, poor fit]
Cc1ccc(CNC(=O)CS(=O)(=O)CC(=O)O)cc1 | -64.2 | 3.66 µM [falling, full curve] | 18.4 µM [falling, single point]
Fc1ccc2[nH]c3c(N4CCN(C5CCCCC5)CC4)ncnc3c2c1 | -17.1 | – | 16.4 µM [falling, partial curve]
CC(C)CNS(=O)(=O)c1ccc(CCC(=O)N2CCN(c3ccc(F)cc3)CC2)cc1 | -23.2 | – | 0.461 µM [falling, full curve]
O=C(NCCSc1ccc(Br)cc1)c1ccc2nc[nH]c2c1 | 8.67 | – | –
CSc1ccccc1C(=O)Nc1ccccc1C(=O)N1CCCC1 | 3.69 | 6.51 µM [falling, single point] | –
Cc1cccc(NC(=O)CSc2ccc(-c3ccccn3)nn2)c1C | 11 | – | 0.231 µM [rising, partial curve, poor fit]
CCOc1ccc(CNCCN2CCCC2)cc1 | – | – | 16.4 µM [falling, single point]
CCN(c1ccccc1)S(=O)(=O)c1ccc(C(=O)Nc2nnc(CSC)o2)cc1 | -34.2 | 0.00517 µM [falling, full curve, poor fit] | –
O=C(NCC1CCCO1)c1cn(-c2ccccc2)nc1-c1ccc(F)cc1 (centres undefined) | 40.8 | 29.1 µM [rising, single point] | 23.1 µM [rising, partial curve, poor fit]
CCCC(=O)c1cc2c(cc1NC(=O)c1ccccc1F)OCCO2 | 19.5 | 1.16 µM [rising, partial curve, poor fit] | –
CCCCn1c(SCC(=O)Nc2cc(C)on2)nnc1-c1cccs1 | 4.05 | – | 0.259 µM [rising, full curve, poor fit]
COc1ccc(-c2csc(NC(=O)CN3C(=O)CCC3=O)n2)c(OC)c1 | -17.3 | – | 16.4 µM [falling, single point]
COc1ccc([N+](=O)[O-])cc1NC(=O)COC(C)=O | -11.8 | – | –
Cc1cc(C)nc(NC(=O)Cc2ccc([N+](=O)[O-])cc2)c1 | -53.4 | 29.1 µM [falling, single point] | 11.6 µM [rising, partial curve]
COc1ccc(N2CCN(C(=O)C3CCC(Cn4c(=S)[nH]c5ccccc5c4=O)CC3)CC2)cc1 (centres undefined) | -32.5 | 18.4 µM [falling, single point] | 0.206 µM [rising, partial curve]
Cn1nc(C(=O)OCC(=O)Nc2ccc3ccccc3c2)c2ccccc2c1=O | 30.3 | – | –
Cc1cc(NC(=O)C(C)SCC(=O)Nc2ccc(Br)cc2Br)no1 (centres undefined) | 25.4 | – | –
CCCCn1c(N)c(N(CCOC)C(=O)c2cccc(S(=O)(=O)N(CC)c3ccccc3)c2)c(=O)[nH]c1=O | 75 | 0.146 µM [falling, full curve, poor fit] | –
Cc1ccccc1NC(=O)c1cc(S(=O)(=O)N2CCOCC2)cn1C | 18.4 | – | 29.1 µM [rising, single point]

Compound | cell number change [%] | AC50 [1] | AC50 [2]
N#C/C(=C\c1ccc(OCc2ccc(C(=O)O)cc2)cc1)C(=O)NCc1ccccc1 | -14.7 | – | 29.1 µM [falling, single point]
COc1cc(N2CN=c3s/c(=C\c4ccccn4)c(=O)n3C2)cc(OC)c1OC | 22.2 | 0.116 µM [rising, full curve] | –
Cc1cc(C(=O)O)c(CCCN)s1 | -5.07 | 0.82 µM [rising, partial curve] | –
COCCCNC(=O)c1ccc(CS(=O)(=O)Cc2cccc(C)c2)o1 | 13.4 | – | 29.1 µM [rising, single point]
CN(C)/C=C(/C(=O)c1ccc(Cl)cc1)S(=O)(=O)c1ccccc1 | – | 0.0206 µM [falling, full curve, poor fit] | –
CCOc1ccc(-n2cnc3c(=O)[nH]c(N)nc32)cc1 | 16.9 | – | –
Cc1ccc2oc(C(=O)N(Cc3nccn3C)C(C)C)c(C)c2c1 | -14.1 | – | 13 µM [falling, partial curve, poor fit]
Nc1nonc1-c1nc2ccccc2n1CC(=O)N1CCCCC1 | 22.5 | 0.461 µM [falling, single point] | 0.58 µM [falling, single point]
CCCC[C@]12Cc3cc(OC)c(OC)cc3C(O1)C1=C(CC3(CCCCC3)OC1=O)O2 | -3.99 | – | –
O=C(CCCc1nc2ccccc2s1)NC1CCOC1=O (centres undefined) | -18.4 | – | 0.326 µM [falling, single point]
COc1ccc(C(C)C)cc1S(=O)(=O)Nc1ccc(Cl)cn1 | 32.1 | 10.3 µM [rising, partial curve, poor fit] | –
Cc1onc(-c2ccccc2Cl)c1C(=O)NCc1cccnc1 | 25.1 | – | –
COC(=O)c1cn(-c2ccccc2)nc1-c1cccnc1 | 93.1 | 6.51 µM [rising, partial curve] | 0.146 µM [rising, single point]
CCOC(=O)C(NC(C)=O)(Nc1ccc(S(=O)(=O)Nc2cc(C)nc(C)n2)cc1)C(F)(F)F (centres undefined) | -31.6 | 7.31 µM [falling, partial curve, poor fit] | 0.411 µM [falling, full curve]
Cc1ccc(C)c(OCC(=O)Nc2cc(C(=O)O)cc(C(=O)O)c2)c1 | -13.9 | – | 0.259 µM [falling, full curve, poor fit]
Cc1ccc(NC(=O)NC2CCCCCCC2)c(C)c1 | 2.6 | – | 14.6 µM [falling, partial curve, poor fit]
CCC(Oc1ccccc1)C(=O)NCc1ccc(S(N)(=O)=O)cc1 (centres undefined) | -14.8 | – | 0.651 µM [falling, full curve, poor fit]
O=C(c1ccccc1)N1CCCOC1c1ccccc1 (centres undefined) | -6.66 | – | –
CCOc1nc(N=C(N)N)nc2c(C)cccc12 | 144 | 20.6 µM [rising, partial curve] | –

16 entries from above, reformatted:
Compound	cell number change [%]	AC50 [1]	AC50 [2]
N#C/C(=C\c1ccc(OCc2ccc(C(=O)O)cc2)cc1)C(=O)NCc1ccccc1	-14.7	–	29.1 µM [falling, single point]
COc1cc(N2CN=c3s/c(=C\c4ccccn4)c(=O)n3C2)cc(OC)c1OC	22.2	0.116 µM [rising, full curve]	–
Cc1cc(C(=O)O)c(CCCN)s1	-5.07	0.82 µM [rising, partial curve]	–
CN(C)/C=C(/C(=O)c1ccc(Cl)cc1)S(=O)(=O)c1ccccc1	–	0.0206 µM [falling, full curve, poor fit]	–
CCOc1ccc(-n2cnc3c(=O)[nH]c(N)nc32)cc1	16.9	–	–
Cc1ccc2oc(C(=O)N(Cc3nccn3C)C(C)C)c(C)c2c1	-14.1	–	13 µM [falling, partial curve, poor fit]
Nc1nonc1-c1nc2ccccc2n1CC(=O)N1CCCCC1	22.5	0.461 µM [falling, single point]	0.58 µM [falling, single point]
CCCC[C@]12Cc3cc(OC)c(OC)cc3C(O1)C1=C(CC3(CCCCC3)OC1=O)O2	-3.99	–	–
O=C(CCCc1nc2ccccc2s1)NC1CCOC1=O (centres undefined)	-18.4	–	0.326 µM [falling, single point]
COc1ccc(C(C)C)cc1S(=O)(=O)Nc1ccc(Cl)cn1	32.1	10.3 µM [rising, partial curve, poor fit]	–
Cc1onc(-c2ccccc2Cl)c1C(=O)NCc1cccnc1	25.1	–	–
CCOC(=O)C(NC(C)=O)(Nc1ccc(S(=O)(=O)Nc2cc(C)nc(C)n2)cc1)C(F)(F)F (centres undefined)	-31.6	7.31 µM [falling, partial curve, poor fit]	0.411 µM [falling, full curve]
Cc1ccc(C)c(OCC(=O)Nc2cc(C(=O)O)cc(C(=O)O)c2)c1	-13.9	–	0.259 µM [falling, full curve, poor fit]
Cc1ccc(NC(=O)NC2CCCCCCC2)c(C)c1	2.6	–	14.6 µM [falling, partial curve, poor fit]
CCC(Oc1ccccc1)C(=O)NCc1ccc(S(N)(=O)=O)cc1 (centres undefined)	-14.8	–	0.651 µM [falling, full curve, poor fit]
O=C(c1ccccc1)N1CCCOC1c1ccccc1 (centres undefined)	-6.66	–	–
